These molecules were tested on acetone-precipitated protein pellets from lysed E. coli (assay: Proteomic mass spectrometry of solubilized and trypsin-digested E. coli protein pellets). Conditions: 0.5% surfactant (RapiGest 0.1%), E. coli protein pellet, trypsin digest, LC-MS/MS, MASCOT and Scaffold.

SMILES | Peptide IDs | Protein IDs
CCCCCCCCCCCC1(C)OCC(COC(=O)NCCCS(=O)(=O)[O-])O1.[Na+] (stereo not drawn) [JRW-1573, Sodium 3-((((2-methyl-2-undecyl-1,3-dioxolan-4-yl)methoxy)carbonyl)amino)propane-1-sulfonate] | 2668 | 830
CCCCCCCC1(CCCCCCC)OCC(COC(=O)NCCCS(=O)(=O)[O-])O1.[Na+] (stereo not drawn) [RBK-0170] | 2111 | 882
CCCCCCCCCCCC1(C)OCC(COCCCS(=O)(=O)[O-])O1.[Na+] (stereo not drawn) [RapiGest] | 2628 | 747

Reference: patent US11939311B2, “Acid-labile surfactants” (Promega Corporation, priority 2019, dated 2024)
